Laboratory results as given in PubChem BioAssay AID540276 (National Center for Advancing Translational Sciences (NCATS), 2011).
Among all 300,000 compounds or so, about 5,400 (1.8%) were called active. The inconclusive results got no clear call from the source; some entries with a clear call stand among them for comparison. Calls follow the shape of the full dose curve; tested in HEK293 cells. A potency beside an inconclusive call is a rough fit, not a confirmed value.

experiment: qHTS for inhibitors of binding or entry into cells for Marburg Virus; conditions: Marburg virus pseudotyped entry inhibition, cell reporter; activity change, negative = inhibition: at 37.8 µM (top of the series) unless noted
% is scaled to controls: 0 for no effect and ±100 for the full control effect; potency is read from the fitted curve at half-maximal effect.

SMILES	activity change, negative = inhibition	Potency
COc1ccc(C(NC(=O)CNC(C)=O)C(=O)Nc2ccc(C(C)C)cc2)cc1 (stereo not drawn)	inactive: 2.87%	
CCCCc1c(C)c2cc(C)ccc2[nH]c1=O	inactive: 8.52%	
O=C(OCC(=O)N1CCCC1=O)c1cc(Cl)ccc1O	inactive: 12.7%	
Fc1ccc(NC(=S)NCc2ccccn2)cc1		inconclusive: 35.5 µM [activator, single point]
CCn1c(CN2CCC(C)CC2)nc2cc(NC(=O)COc3ccc(Cl)c(C)c3)ccc21		inconclusive: 14.1 µM [inhibitor, partial curve, poor fit]
CCN(CC)c1ccc(CNc2ccc3c(c2)ncn3C(C)(C)C)cc1		inconclusive: 11.2 µM [inhibitor, partial curve, poor fit]
CC(=O)Nc1cccc(NC(=O)CSc2nc(=O)n(CCCN3CCOCC3)c3c2CCC3)c1	inactive: 1.91%	
COc1cc(S(=O)(=O)n2nnc3ccccc32)c(OC)cc1Cl		inconclusive: 35.5 µM [activator, single point]
COc1ccc(S(=O)(=O)N2CCN(C(=O)c3sccc3-c3ccccc3)CC2)cc1		inconclusive: 5.01 µM [inhibitor, full curve, poor fit]
CC(C)CC(=O)Nc1ccc(Oc2ccc(NC(=O)CC(C)C)cc2)cc1	inactive: -4.52%	
O=C(Nc1ccccn1)c1cc2ccccc2cc1O	inactive: 5.6% [at 46.1 µM]	
COc1cccc(/C=C/C(=O)c2ccc(C)c([N+](=O)[O-])c2)c1		inconclusive: 1.16 µM [inhibitor, partial curve, poor fit]
O=C(COc1ccc(Br)cc1)NC(=S)Nc1ccccc1N1CCOCC1	inactive: -3.27%	
Oc1ccc(C2=NNC(=NCc3ccc4c(c3)OCO4)SC2)c(O)c1		inconclusive: 3.55 µM [inhibitor, single point]
CN1CCOCCOc2ccccc2OCCOCC1	inactive: -0.711%	
COc1ccc(-c2cc(C#N)nc(N3CCNCC3)n2)cc1		inconclusive: 16.4 µM [inhibitor, partial curve, poor fit]
CCCCN1CC(COCc2ccccc2)Oc2cccc(Oc3cc(C)c(C)c(C)c3)c2S1(=O)=O (stereo not drawn)		inconclusive: 14.1 µM [inhibitor, partial curve, poor fit]
N#CC1=C(N)C2=CCCC[C@H]2[C@H](c2ccc(Br)cc2)C1(C#N)C#N		inconclusive: 20 µM [inhibitor, single point]
COc1cccc(-n2nnc3c(=O)n(Cc4c(F)cccc4Cl)cnc32)c1	inactive: -0.497%	
C/C(N)=C(/C#N)C(=O)COC(=O)c1ccc(OCC2CCCO2)cc1 (stereo not drawn)		inconclusive: 2.51 µM [activator, full curve]
Cc1nn(Cc2ccccc2)c2c1C(c1ccc(Cl)cc1)C(C#N)=C(N)O2 (stereo not drawn)	inactive: -12.2%	
CC(C)c1ccc2nc(N)sc2c1		inconclusive: 11.2 µM [inhibitor, single point]
CC(C)Nc1nc(NC(C)C)nc(C(N)=O)n1		inconclusive: 16.4 µM [activator, single point]
Cc1ccc(C)c(Nc2nc(N)c3ccccc3n2)c1		inconclusive: 23.1 µM [inhibitor, single point]

In the list so far, two contain fluorine.
SMILES	activity change, negative = inhibition	Potency
Fc1ccc(NC(=S)NCc2ccccn2)cc1		inconclusive: 35.5 µM [activator, single point]
COc1cccc(-n2nnc3c(=O)n(Cc4c(F)cccc4Cl)cnc32)c1	inactive: -0.497%	

Following part:

SMILES	activity change, negative = inhibition	Potency
CCn1nnnc1SCC(=O)c1ccc(C)cc1C		inconclusive: 35.5 µM [inhibitor, single point]
O=C(CNc1ccc(F)cc1)c1ccccc1		inconclusive: 35.5 µM [activator, single point]
Cc1cc(C)c(S(=O)(=O)N/N=C/c2ccc([N+](=O)[O-])o2)c(C)c1	inactive: 14.2% [at 46.1 µM]	
O=C(COC(=O)c1cc(S(=O)(=O)N2CCOCC2)ccc1F)NC1CC1		inconclusive: 3.16 µM [activator, single point]
O=C1[C@@H]2Cc3c([nH]c4ccccc34)C(c3ccccc3)N2C(=O)CN1C1CCN(Cc2ccccc2)CC1 (stereo partly drawn)		inconclusive: 10 µM [inhibitor, partial curve, poor fit]
COc1cc(OC)c(C(=O)Nc2ccc3ccccc3c2)cc1OC	inactive: -4.11%	
CN(CC(=O)Nc1ccc(Cl)cc1)c1ccc(S(=O)(=O)N2CCCCC2)cc1[N+](=O)[O-]		inconclusive: 1.16 µM [activator, single point]
O=c1ccc(-c2ccccc2)nn1Cc1ccccc1F		inconclusive: 28.2 µM [inhibitor, partial curve, poor fit]
COc1ccccc1OC(=O)c1ccc(S(=O)(=O)N(C)C)cc1	inactive: 9.38%	
Cc1ccc(C)c(-n2c(CNc3ccc(F)cc3)nnc2SCC(N)=O)c1	inactive: -0.445%	
COc1ccc(COc2ccccc2C(N)=O)cc1F	inactive: 10.8%	
CCC(C)(C)n1nnnc1C(c1ccc2ncccc2c1)N1CCN2CCCC2C1 (stereo not drawn)	inactive: 0.715%	
COCCCNC(=O)c1c(N)n(-c2ccccc2)c2nc3ccccc3nc12		inconclusive: 22.4 µM [inhibitor, single point]
CN1CCN(C(=O)CN(Cc2ccc(Cl)cc2)S(C)(=O)=O)CC1		inconclusive: 25.1 µM [activator, single point]
O=C(CNC(=O)c1ccccc1F)Nc1ccccc1C(F)(F)F	inactive: 15.5% [at 46.1 µM]	
CC(C)CO/N=C1/C[C@@H](O)[C@@H](O)[C@@H]2[C@H]3C(=O)N(c4ccc(F)cc4F)C(=O)[C@@H]3CC[C@@H]12	inactive: -10.3% [at 14.2 µM]	
Cn1ccsc1=NC(=O)c1ccc(CS(C)(=O)=O)cc1		inconclusive: 17.8 µM [activator, single point]
CC1CCCN(C(=O)CSc2cnc3ccccc3n2)C1 (stereo not drawn)	inactive: 11.2%	
Cc1ccc(NC(=O)c2ncn[nH]2)cc1	inactive: -10.4% [at 46.1 µM]	
Cc1cccc(C(=O)N2CCC(=O)N(C(COCc3cccc(Cl)c3)Cc3ccccc3)CC2)c1 (stereo not drawn)	inactive: -7.91%	
COc1cc(C)cc2oc(=O)c(CC(=O)NCCc3ccc(Cl)cc3)c(C)c12	inactive: 3.64% [at 46.1 µM]	
Cc1cc(C(=O)N/N=C\c2cc(C(C)(C)C)c(O)c(C(C)(C)C)c2)n[nH]1		inconclusive: 10 µM [inhibitor, partial curve, poor fit]
CCN(C(=O)C(C)Cl)c1ccccc1 (stereo not drawn)		inconclusive: 1.41 µM [activator, partial curve, poor fit]
O=C1CCC(C(=O)Nc2cccc3ccccc23)N1 (stereo not drawn)		inconclusive: 3.55 µM [activator, single point]
